# Experiment: general procedure: Fmoc solid-phase peptide synthesis; Rink-TentaGel resin; PAL Peg-PS resin; HCTU
# Details: whole synthesis, HPLC (methods B, C)
row,Substance,purity (crude or final not stated)
1,"[Val31,Gln34]PP",96.3%
2,"Leu30,Gln34]PP",96.5%
3,"His26,Gln34]PP",95.0%
4,"[Ala1,Glu4,Arg26,Met30]PYY",96.4%
5,"Ile31,Gln34]PP",97.1%
6,"[Arg26,Met30]PYY",91.3%
7,"Glu4,Arg26]PYY",95.3%

# Source: US20080261871A1 (priority 2004, published 2008)
